The supplement of paper PMC10331698
± gives the standard deviation of the averaged measurements. Most entries show no effect beyond the scatter of the controls.

Legend:
Experiment in all cases: level (log10 ratio to DMSO vehicle control); higher = higher biomarker level / cell amount than vehicle control
[1] = compound: CC(C)(C)C(=O)CC(=O)C(F)(F)C(F)(F)C(F)(F)F [(Heptafluorobutanoyl)pivaloylmethane]; details: 2200 nM; in DMSO
Method: (§1)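 BioMAP Diversity Plus panel of 12 human primary cell co-culture systems (3C, 4H, LPS, SAg, BT, BF4T, BE3C, CASM3C, HDF3CGF, KF3CT, MyoF, Mphg). Compounds were added 1 h before stimulation and left for 24 h (MyoF 48 h; BT 72 h for soluble read-outs or 6 d for IgG). Biomarkers were read by ELISA, cytotoxicity by SRB, PBMC viability and proliferation by Alamar Blue. Each well value was divided by the mean of 8 DMSO control wells on the same plate and log10 transformed; duplicate blinded samples were tested at 4 concentrations.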

1-(Perfluorohexyl)octane = compound: CCCCCCCCC(F)(F)C(F)(F)C(F)(F)C(F)(F)C(F)(F)C(F)(F)F [1-(Perfluorohexyl)octane]; details: in DMSO
Method: as §1

[2] = compound: CCN(CCO)S(=O)(=O)C(F)(F)C(F)(F)C(F)(F)C(F)(F)C(F)(F)C(F)(F)C(F)(F)C(F)(F)F [N-Ethyl-N-(2-hydroxyethyl)perfluorooctanesulfonamide]; details: in DMSO
Method: as §1

[3] = compound: CN(C(=O)C(F)(F)C(F)(F)C(F)(F)F)[Si](C)(C)C [N-Methyl-N-trimethylsilylheptafluorobutyramide]; details: 2200 nM; in DMSO
Method: as §1

[4] = compound: Cc1ccc(S(=O)(=O)OCC(F)(F)C(F)(F)C(F)(F)C(F)(F)C(F)(F)C(F)F)cc1 [1H,1H,7H-Perfluoroheptyl 4-methylbenzenesulfonate]; details: 2200 nM; in DMSO
Method: as §1

[5] = compound: FC(F)(F)C(F)(F)C(F)(F)C(F)(F)C(F)(F)C(F)(F)CC1CO1 [3-(Perfluorohexyl)-1,2-epoxypropane]; details: 2200 nM; in DMSO
Method: as §1

Heptafluorobutyramide = compound: NC(=O)C(F)(F)C(F)(F)C(F)(F)F [Heptafluorobutyramide]; details: 2200 nM; in DMSO
Method: as §1

[6] = compound: NCC(F)(F)C(F)(F)C(F)(F)C(F)(F)C(F)(F)C(F)(F)C(F)(F)F [1H,1H-Perfluorooctylamine]; details: 2200 nM; in DMSO
Method: as §1

Octafluoroadipic acid = compound: O=C(O)C(F)(F)C(F)(F)C(F)(F)C(F)(F)C(=O)O [Octafluoroadipic acid]; details: 2200 nM; in DMSO
Method: as §1

[7] = compound: O=C(O)C(F)(F)C(F)(F)C(F)(F)C(F)(F)C(F)(F)C(F)(F)C(F)(F)C(F)(F)C(F)(F)C(F)F [11-H-Perfluoroundecanoic acid]; details: 2200 nM; in DMSO
Method: as §1

Perfluoroheptanoic acid = compound: O=C(O)C(F)(F)C(F)(F)C(F)(F)C(F)(F)C(F)(F)C(F)(F)F [Perfluoroheptanoic acid]; details: in DMSO
Method: as §1

Perfluoropentanoic acid = compound: O=C(O)C(F)(F)C(F)(F)C(F)(F)C(F)(F)F [Perfluoropentanoic acid]; details: in DMSO
Method: as §1

[8] = compound: O=C(O)C(F)(F)C(F)(F)C(F)(F)OC(F)(F)F [Perfluoro(4-methoxybutanoic) acid]; details: 2200 nM; in DMSO
Method: as §1

[9] = compound: O=S(=O)(O)CCC(F)(F)C(F)(F)C(F)(F)C(F)(F)C(F)(F)C(F)(F)C(F)(F)C(F)(F)F [8:2 Fluorotelomer sulfonic acid]; details: in DMSO
Method: as §1

1H,1H-Heptafluorobutanol = compound: OCC(F)(F)C(F)(F)C(F)(F)F [1H,1H-Heptafluorobutanol]; details: 2200 nM; in DMSO
Method: as §1

[10] = compound: OCCC(F)(F)C(F)(F)C(F)(F)C(F)(F)C(F)(F)C(F)(F)F [6:2 Fluorotelomer alcohol]; details: 2200 nM; in DMSO
Method: as §1

Row | Test System | level (log10) [1] | level (log10) (1-(Perfluorohexyl)octane; 740 nM) | level (log10) (1-(Perfluorohexyl)octane; 2200 nM) | level (log10) ([2]; 2200 nM) | level (log10) ([2]; 6700 nM) | level (log10) ([2]; 20000 nM) | level (log10) [3] | level (log10) [4] | level (log10) [5] | level (log10) (Heptafluorobutyramide) | level (log10) [6] | level (log10) (Octafluoroadipic acid) | level (log10) [7] | level (log10) (Perfluoroheptanoic acid; 2200 nM) | level (log10) (Perfluoroheptanoic acid; 6700 nM) | level (log10) (Perfluoroheptanoic acid; 20000 nM) | level (log10) (Perfluoroheptanoic acid; 60000 nM) | level (log10) (Perfluoropentanoic acid; 2200 nM) | level (log10) (Perfluoropentanoic acid; 6700 nM) | level (log10) (Perfluoropentanoic acid; 20000 nM) | level (log10) (Perfluoropentanoic acid; 60000 nM) | level (log10) [8] | level (log10) ([9]; 2200 nM) | level (log10) ([9]; 6700 nM) | level (log10) ([9]; 20000 nM) | level (log10) ([9]; 60000 nM) | level (log10) (1H,1H-Heptafluorobutanol) | level (log10) [10]
1 | HDF3CGF:TIMP-2 | -0.005 ± 0.03 | -0.0305 ± 0.063 | 0.005 ± 0.037 | 0.062 ± 0.042 | 0.136 ± 0.0057 | 0.108 ± 0.0071 | -0.01 ± 0.0028 | -0.049 ± 0.0028 | 0 ± 0.0042 | -0.0055 ± 0.044 | -0.028 ± 0.037 | 0.0025 ± 0.03 | -0.0735 ± 0.021 | -0.0245 ± 0.011 | -0.011 ± 0.018 | -0.012 ± 0.017 | 0.014 ± 0.0085 | -0.003 ± 0.041 | 0.009 ± 0.024 | -0.0155 ± 0.018 | -0.0025 ± 0.011 | -0.001 ± 0.034 | 0.0255 ± 0.061 | -0.003 ± 0.016 | -0.023 ± 0.016 | -0.0475 ± 0.022 | -0.0045 ± 0.032 | 0.0215 ± 0.0078
2 | KF3CT:CCL2/MCP-1 | 0.015 ± 0.014 | 0.0275 ± 0.088 | 0.0045 ± 0.035 | -0.0165 ± 0.029 | -0.0205 ± 0.0078 | -0.102 ± 0.019 | 0.018 ± 0.038 | 0.049 ± 0.076 | -0.01 ± 0.018 | 0.0225 ± 0.03 | 0.0005 ± 0.043 | 0.0335 ± 0.06 | 0.016 ± 0.025 | -0.008 ± 0.037 | 0.0165 ± 0.021 | 0.033 ± 0.024 | 0.0255 ± 0.053 | -0.0045 ± 0.019 | 0.002 ± 0.02 | -0.025 ± 0.025 | 0.0215 ± 0.05 | 0.032 ± 0.041 | 0.0005 ± 0.043 | -0.0135 ± 0.005 | -0.0585 ± 0.029 | -0.0475 ± 0.011 | -0.0015 ± 0.018 | -0.0035 ± 0.012
3 | KF3CT:CD54/ICAM-1 | -0.011 ± 0.021 | 0.0025 ± 0.028 | -0.016 ± 0.023 | -0.0145 ± 0.018 | 0.0415 ± 0.0078 | 0.002 ± 0.0028 | -0.003 ± 0.013 | 0 ± 0.033 | 0.0225 ± 0.035 | -0.0035 ± 0.022 | -0.0165 ± 0.011 | 0.0005 ± 0.013 | -0.0235 ± 0.054 | 0.0015 ± 0.0078 | -0.023 ± 0.0042 | -0.0085 ± 0.0035 | -0.0315 ± 0.00071 | -0.0075 ± 0.039 | 0.004 ± 0.0057 | 0.001 ± 0.013 | 0.016 ± 0.028 | -0.001 ± 0.023 | -0.0165 ± 0.00071 | -0.026 ± 0.02 | -0.0495 ± 0.018 | -0.0515 ± 0.005 | 0.0015 ± 0.0035 | 0.0095 ± 0.026
4 | KF3CT:CXCL8/IL-8 | -0.0045 ± 0.015 | 0.013 ± 0.024 | 0.012 ± 0.0028 | 0.01 ± 0.0085 | -0.0975 ± 0.012 | -0.0935 ± 0.0064 | 0.006 ± 0.0042 | 0.0105 ± 0.023 | 0.016 ± 0.013 | 0.004 ± 0.016 | 0.0035 ± 0.0092 | 0.0075 ± 0.0021 | 0.002 ± 0.0099 | -0.004 ± 0.023 | -0.0055 ± 0.0064 | 0.002 | 0.0105 ± 0.00071 | -0.0155 ± 0.0092 | -0.0025 ± 0.019 | -0.0035 ± 0.005 | 0.016 ± 0.0071 | 0.0065 ± 0.005 | 0.0135 ± 0.043 | 0.016 ± 0.038 | -0.03 ± 0.023 | -0.131 ± 0.036 | -0.001 ± 0.016 | -0.0115 ± 0.011
5 | KF3CT:CXCL9/MIG | 0.0005 ± 0.005 | -0.0025 ± 0.015 | -0.003 ± 0.0028 | 0.0055 ± 0.011 | 0.004 ± 0.0085 | -0.032 ± 0.013 | -0.006 ± 0.024 | -0.0035 ± 0.023 | 0.0025 ± 0.0078 | 0.011 ± 0.0071 | 0.001 ± 0.016 | 0.012 ± 0.0099 | -0.009 ± 0.0071 | 0.007 ± 0.0014 | -0.0085 ± 0.005 | -0.0015 ± 0.0035 | 0.011 ± 0.013 | 0.001 ± 0.011 | -0.002 ± 0.0057 | -0.0055 ± 0.0021 | 0.0085 ± 0.013 | 0.016 ± 0.0071 | 0.0015 ± 0.016 | 0.005 ± 0.017 | 0.003 ± 0.0099 | 0.01 ± 0.0057 | -0.0045 ± 0.0092 | 0.0075 ± 0.005
6 | KF3CT:CXCL10/IP-10 | 0 ± 0.02 | 0.0005 ± 0.022 | 0.0035 ± 0.013 | -0.005 ± 0.0028 | -0.0395 ± 0.022 | -0.107 ± 0.015 | -0.003 ± 0.0099 | -0.0185 ± 0.013 | 0.0345 ± 0.0092 | 0.005 ± 0.017 | 0.001 ± 0.0057 | 0.0085 ± 0.013 | -0.0045 ± 0.015 | 0.003 ± 0.028 | -0.003 ± 0.018 | 0.0125 ± 0.026 | 0.0155 ± 0.023 | -0.006 ± 0.0042 | 0.002 ± 0.0042 | -0.0085 ± 0.0035 | 0.0025 ± 0.016 | 0.0005 ± 0.016 | -0.012 | -0.015 ± 0.0028 | -0.044 ± 0.0042 | -0.0495 ± 0.00071 | 0.0035 ± 0.0064 | 0.0125 ± 0.0021
7 | KF3CT:IL-1alpha | 0.0085 ± 0.025 | 0.0265 ± 0.046 | 0.0105 ± 0.032 | -0.0305 ± 0.019 | 0.006 ± 0.028 | -0.111 | 0.0145 ± 0.0092 | 0.0005 ± 0.076 | 0.0005 ± 0.0035 | 0.002 ± 0.04 | -0.014 ± 0.016 | 0.0155 ± 0.07 | 0.0385 ± 0.047 | -0.0015 ± 0.011 | -0.007 ± 0.018 | 0.016 ± 0.014 | -0.0115 ± 0.0064 | 0.0055 ± 0.033 | -0.004 ± 0.017 | 0.004 ± 0.0028 | -0.0115 ± 0.021 | 0.008 ± 0.04 | -0.016 ± 0.034 | -0.041 ± 0.027 | -0.137 ± 0.033 | -0.0655 ± 0.046 | 0.0105 ± 0.015 | 0.022 ± 0.013
8 | KF3CT:MMP-9 | -0.0305 ± 0.013 | 0.0195 ± 0.037 | 0.0085 ± 0.039 | 0.0165 ± 0.012 | 0.01 ± 0.0085 | -0.0875 ± 0.015 | -0.008 ± 0.017 | 0.0055 ± 0.052 | -0.0015 ± 0.0078 | 0.0105 ± 0.005 | -0.0145 ± 0.012 | 0.002 | -0.0165 ± 0.022 | -0.0055 ± 0.037 | -0.0065 ± 0.0078 | 0.0165 ± 0.026 | 0.059 ± 0.025 | -0.0025 ± 0.013 | -0.0225 ± 0.025 | -0.0205 ± 0.018 | 0.012 ± 0.038 | 0.0175 ± 0.0092 | -0.0125 ± 0.0035 | -0.009 ± 0.0014 | 0.0165 ± 0.0078 | -0.0335 ± 0.018 | -0.0135 ± 0.0064 | 0.011 ± 0.0042
9 | KF3CT:PAI-I | -0.0135 ± 0.012 | 0.01 ± 0.025 | 0.0145 ± 0.0035 | -0.0255 ± 0.013 | -0.0995 ± 0.011 | -0.193 ± 0.014 | 0.004 ± 0.0099 | 0.027 ± 0.0028 | 0.0155 ± 0.04 | 0.0085 ± 0.00071 | -0.004 ± 0.0099 | 0.007 ± 0.0099 | 0.002 ± 0.042 | 0.017 ± 0.02 | -0.043 ± 0.016 | -0.0355 ± 0.012 | -0.013 ± 0.068 | 0.001 ± 0.0099 | 0.0005 ± 0.021 | -0.003 | 0.004 ± 0.0057 | 0.0015 ± 0.005 | 0.0015 ± 0.0064 | -0.0065 ± 0.022 | -0.029 ± 0.014 | -0.0255 ± 0.019 | 0.005 ± 0.013 | -0.0025 ± 0.0035
